# Assay results from publication PMC5996148.
# By UniProt entry, the sequences of proteins in these tests, tags left out.
# UniProt P02751, whole entry: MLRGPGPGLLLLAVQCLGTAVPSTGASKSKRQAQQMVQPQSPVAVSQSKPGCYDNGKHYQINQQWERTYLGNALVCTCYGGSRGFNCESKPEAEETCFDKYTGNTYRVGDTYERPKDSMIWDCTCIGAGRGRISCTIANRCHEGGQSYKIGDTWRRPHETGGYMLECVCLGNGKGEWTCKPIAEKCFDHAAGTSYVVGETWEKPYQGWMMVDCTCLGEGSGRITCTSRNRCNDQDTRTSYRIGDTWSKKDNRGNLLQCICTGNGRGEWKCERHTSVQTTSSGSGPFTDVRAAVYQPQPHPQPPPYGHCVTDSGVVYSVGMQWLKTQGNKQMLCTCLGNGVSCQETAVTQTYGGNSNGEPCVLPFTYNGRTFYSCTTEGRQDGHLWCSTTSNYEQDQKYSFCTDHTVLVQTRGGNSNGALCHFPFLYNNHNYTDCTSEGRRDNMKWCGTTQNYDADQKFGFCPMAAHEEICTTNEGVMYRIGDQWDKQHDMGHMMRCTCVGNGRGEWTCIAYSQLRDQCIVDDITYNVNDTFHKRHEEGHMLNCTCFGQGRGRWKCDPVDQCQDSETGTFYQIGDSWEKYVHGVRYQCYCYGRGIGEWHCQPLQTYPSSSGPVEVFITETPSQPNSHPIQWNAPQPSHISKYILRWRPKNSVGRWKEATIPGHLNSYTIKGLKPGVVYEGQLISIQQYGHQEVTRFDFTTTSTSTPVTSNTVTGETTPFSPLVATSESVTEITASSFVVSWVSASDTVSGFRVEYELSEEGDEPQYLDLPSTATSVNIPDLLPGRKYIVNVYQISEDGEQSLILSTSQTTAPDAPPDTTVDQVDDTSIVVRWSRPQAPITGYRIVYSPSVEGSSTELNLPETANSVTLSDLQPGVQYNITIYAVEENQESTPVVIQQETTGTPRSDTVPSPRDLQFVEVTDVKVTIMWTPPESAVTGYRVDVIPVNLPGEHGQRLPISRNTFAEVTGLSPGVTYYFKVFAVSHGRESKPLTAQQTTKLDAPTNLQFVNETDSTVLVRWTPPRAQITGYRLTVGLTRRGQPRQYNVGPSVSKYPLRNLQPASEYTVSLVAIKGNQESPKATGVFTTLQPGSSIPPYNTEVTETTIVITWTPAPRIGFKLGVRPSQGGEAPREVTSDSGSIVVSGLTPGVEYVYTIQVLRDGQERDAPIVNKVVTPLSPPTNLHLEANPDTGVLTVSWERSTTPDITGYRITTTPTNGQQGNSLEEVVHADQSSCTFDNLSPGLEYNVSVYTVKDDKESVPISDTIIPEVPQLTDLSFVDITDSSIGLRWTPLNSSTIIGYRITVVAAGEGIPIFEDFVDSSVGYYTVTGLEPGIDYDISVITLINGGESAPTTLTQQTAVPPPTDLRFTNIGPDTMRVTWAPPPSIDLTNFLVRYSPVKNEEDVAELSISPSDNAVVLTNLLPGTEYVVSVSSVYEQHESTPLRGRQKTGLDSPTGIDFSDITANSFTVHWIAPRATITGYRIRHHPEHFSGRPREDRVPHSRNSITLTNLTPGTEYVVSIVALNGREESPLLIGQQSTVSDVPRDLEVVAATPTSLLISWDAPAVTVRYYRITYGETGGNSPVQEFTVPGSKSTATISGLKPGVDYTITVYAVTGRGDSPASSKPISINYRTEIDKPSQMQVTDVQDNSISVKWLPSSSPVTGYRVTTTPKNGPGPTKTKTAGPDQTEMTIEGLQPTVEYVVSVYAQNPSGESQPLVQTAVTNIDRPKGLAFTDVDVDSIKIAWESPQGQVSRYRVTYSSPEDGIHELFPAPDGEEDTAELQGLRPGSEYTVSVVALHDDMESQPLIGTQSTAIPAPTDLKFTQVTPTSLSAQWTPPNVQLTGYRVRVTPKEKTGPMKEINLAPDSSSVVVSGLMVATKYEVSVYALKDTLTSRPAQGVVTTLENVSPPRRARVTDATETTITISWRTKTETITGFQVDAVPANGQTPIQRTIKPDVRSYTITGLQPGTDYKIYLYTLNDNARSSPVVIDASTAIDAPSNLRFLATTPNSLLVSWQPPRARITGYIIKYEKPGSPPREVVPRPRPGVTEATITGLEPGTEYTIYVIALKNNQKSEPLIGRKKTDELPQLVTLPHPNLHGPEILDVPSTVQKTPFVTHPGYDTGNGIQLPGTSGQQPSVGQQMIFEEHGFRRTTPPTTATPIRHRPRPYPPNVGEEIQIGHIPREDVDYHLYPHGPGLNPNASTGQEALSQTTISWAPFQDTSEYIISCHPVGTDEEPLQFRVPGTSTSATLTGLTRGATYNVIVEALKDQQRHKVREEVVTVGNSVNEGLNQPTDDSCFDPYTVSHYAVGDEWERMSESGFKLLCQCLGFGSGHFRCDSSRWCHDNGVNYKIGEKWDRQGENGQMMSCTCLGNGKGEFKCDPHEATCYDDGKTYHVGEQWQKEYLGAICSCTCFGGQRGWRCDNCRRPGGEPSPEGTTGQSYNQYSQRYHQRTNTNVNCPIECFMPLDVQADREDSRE
# The other results are listed elsewhere or left out. For some of these results: The source does not settle which construct or isoform was used.
# What was measured:
# Assay in all cases: protein microarray (ProtoArray v5.0), streptavidin-Alexa Fluor 647
# Settings in all cases: 3'-biotin; 20 mM Tris (pH 7.5), 5 mM MgCl2, 100 mM KCl, 0.1% Tween-20, A/T-rich and random oligonucleotide blockers; temperature not stated; high values mean tight binding
# FLJ36032 (human) = test system: FLJ36032 (human)
# FLJ43980 (human) = test system: FLJ43980 (human)
# FLJ90650 (human) = test system: FLJ90650 (human)
# FLOT2 (human) = test system: FLOT2 (human)
# FLT3LG (human) = test system: FLT3LG (human)
# FN1 = FN1 (UniProt P02751)
# FN3KRP (human) = test system: FN3KRP (human)
# FNBP1 (human) = test system: FNBP1 (human)
# FNDC5 (human) = test system: FNDC5 (human)
# FNDC8 (human) = test system: FNDC8 (human)
sequence,measurement,setting,value
GGGAGGCTGAGGCAGG [G4-1 biotinylated (PQS2)],binding signal,FLJ36032 (human),-0.291 z-score
same,binding signal,FLJ43980 (human),-0.345 z-score
same,binding signal,FLJ90650 (human),-0.306 z-score
same,binding signal,FLOT2 (human),-0.342 z-score
same,binding signal,FLT3LG (human),-0.298 z-score
same,binding signal,FN1,-0.296 z-score
same,binding signal,FN3KRP (human),-0.324 z-score
same,binding signal,FNBP1 (human),-0.339 z-score
same,binding signal,FNDC5 (human),-0.299 z-score
same,binding signal,FNDC8 (human),-0.328 z-score
